{"sequences": {"note": "Amino acid sequences for entries named in this document (tags omitted).", "CAMP, P49913, UniProt P49913, whole entry": "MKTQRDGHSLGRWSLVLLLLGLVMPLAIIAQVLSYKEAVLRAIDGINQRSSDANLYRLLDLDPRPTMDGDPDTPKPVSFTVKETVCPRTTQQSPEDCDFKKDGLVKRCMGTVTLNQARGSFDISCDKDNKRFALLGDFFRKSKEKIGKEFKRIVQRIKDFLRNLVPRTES", "MSH2, P43246, UniProt P43246, whole entry": "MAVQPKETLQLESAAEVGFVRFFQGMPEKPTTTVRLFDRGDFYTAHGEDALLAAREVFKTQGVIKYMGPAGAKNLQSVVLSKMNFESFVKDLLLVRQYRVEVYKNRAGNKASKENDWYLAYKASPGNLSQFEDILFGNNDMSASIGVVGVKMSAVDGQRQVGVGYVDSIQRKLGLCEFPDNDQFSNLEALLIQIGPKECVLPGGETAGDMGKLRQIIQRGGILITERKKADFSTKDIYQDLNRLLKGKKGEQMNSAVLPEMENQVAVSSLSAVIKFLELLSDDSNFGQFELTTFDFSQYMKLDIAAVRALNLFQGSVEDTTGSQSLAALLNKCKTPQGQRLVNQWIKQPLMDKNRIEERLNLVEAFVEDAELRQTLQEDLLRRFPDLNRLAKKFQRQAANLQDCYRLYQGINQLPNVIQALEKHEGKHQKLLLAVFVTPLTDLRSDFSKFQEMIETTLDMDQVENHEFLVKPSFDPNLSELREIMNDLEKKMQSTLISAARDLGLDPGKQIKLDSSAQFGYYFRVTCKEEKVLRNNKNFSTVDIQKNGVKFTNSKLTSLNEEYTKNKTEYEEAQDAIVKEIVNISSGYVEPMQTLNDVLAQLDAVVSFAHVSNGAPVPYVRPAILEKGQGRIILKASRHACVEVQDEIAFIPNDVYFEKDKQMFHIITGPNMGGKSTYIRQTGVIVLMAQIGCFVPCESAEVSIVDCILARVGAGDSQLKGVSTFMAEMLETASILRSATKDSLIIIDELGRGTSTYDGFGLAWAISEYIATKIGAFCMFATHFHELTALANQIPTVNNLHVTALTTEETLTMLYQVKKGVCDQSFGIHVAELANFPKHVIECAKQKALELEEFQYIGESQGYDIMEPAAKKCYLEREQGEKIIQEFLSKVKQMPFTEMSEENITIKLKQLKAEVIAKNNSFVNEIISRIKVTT", "NCL, P19338, UniProt P19338, whole entry": "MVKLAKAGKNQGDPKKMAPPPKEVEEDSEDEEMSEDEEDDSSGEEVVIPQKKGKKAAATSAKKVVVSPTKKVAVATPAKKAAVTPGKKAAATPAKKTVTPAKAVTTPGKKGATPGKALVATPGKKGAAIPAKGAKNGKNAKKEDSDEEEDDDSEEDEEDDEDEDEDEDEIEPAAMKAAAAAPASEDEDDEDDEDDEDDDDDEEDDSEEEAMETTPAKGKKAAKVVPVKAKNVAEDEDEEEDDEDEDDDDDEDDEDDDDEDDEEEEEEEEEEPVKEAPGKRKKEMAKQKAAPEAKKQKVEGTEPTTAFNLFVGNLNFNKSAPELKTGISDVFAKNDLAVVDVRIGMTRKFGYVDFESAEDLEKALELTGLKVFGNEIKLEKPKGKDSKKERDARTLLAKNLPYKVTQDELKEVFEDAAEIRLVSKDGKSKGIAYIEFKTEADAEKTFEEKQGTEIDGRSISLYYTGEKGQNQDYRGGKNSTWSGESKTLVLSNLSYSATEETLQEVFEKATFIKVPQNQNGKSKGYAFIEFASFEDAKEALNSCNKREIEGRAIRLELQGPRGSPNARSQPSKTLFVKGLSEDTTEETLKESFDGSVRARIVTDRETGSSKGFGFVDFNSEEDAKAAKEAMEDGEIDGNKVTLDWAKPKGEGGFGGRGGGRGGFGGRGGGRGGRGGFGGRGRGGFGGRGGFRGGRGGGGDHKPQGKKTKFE", "POLR1E, Q9GZS1, UniProt Q9GZS1, whole entry": "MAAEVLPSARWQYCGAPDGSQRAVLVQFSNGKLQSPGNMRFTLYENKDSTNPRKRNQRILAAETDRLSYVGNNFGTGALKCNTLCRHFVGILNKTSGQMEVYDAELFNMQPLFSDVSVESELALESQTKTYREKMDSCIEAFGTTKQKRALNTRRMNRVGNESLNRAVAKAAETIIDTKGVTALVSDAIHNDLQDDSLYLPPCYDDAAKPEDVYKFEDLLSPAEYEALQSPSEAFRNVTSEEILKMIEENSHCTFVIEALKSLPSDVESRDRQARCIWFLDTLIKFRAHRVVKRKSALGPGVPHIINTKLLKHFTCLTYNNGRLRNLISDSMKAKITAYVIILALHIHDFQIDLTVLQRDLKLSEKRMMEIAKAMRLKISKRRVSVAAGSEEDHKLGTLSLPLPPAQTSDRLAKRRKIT", "SET, Q01105, UniProt Q01105, whole entry": "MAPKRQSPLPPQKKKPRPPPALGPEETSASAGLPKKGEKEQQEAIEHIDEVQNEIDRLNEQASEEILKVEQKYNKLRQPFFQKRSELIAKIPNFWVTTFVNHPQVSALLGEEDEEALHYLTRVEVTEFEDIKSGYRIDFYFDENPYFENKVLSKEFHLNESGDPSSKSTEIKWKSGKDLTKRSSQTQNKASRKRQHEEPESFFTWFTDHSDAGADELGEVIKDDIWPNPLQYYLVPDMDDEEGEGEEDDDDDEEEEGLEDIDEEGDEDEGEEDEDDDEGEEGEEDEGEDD", "NDUFS2, O75306, UniProt O75306, whole entry": "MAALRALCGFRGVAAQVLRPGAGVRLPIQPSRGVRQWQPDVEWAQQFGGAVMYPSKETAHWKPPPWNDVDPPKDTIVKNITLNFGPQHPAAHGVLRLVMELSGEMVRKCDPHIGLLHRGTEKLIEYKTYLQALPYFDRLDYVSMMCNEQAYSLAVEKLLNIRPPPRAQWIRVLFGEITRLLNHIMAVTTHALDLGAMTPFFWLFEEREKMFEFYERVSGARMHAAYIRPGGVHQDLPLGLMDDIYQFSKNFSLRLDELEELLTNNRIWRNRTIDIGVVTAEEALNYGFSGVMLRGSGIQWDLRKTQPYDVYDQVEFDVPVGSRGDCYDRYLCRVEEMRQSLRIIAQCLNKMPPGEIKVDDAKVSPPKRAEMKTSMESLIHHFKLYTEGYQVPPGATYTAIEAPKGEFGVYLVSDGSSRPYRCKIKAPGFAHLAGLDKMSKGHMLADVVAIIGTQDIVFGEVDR", "EIF2B4, Q9UI10, UniProt Q9UI10, whole entry": "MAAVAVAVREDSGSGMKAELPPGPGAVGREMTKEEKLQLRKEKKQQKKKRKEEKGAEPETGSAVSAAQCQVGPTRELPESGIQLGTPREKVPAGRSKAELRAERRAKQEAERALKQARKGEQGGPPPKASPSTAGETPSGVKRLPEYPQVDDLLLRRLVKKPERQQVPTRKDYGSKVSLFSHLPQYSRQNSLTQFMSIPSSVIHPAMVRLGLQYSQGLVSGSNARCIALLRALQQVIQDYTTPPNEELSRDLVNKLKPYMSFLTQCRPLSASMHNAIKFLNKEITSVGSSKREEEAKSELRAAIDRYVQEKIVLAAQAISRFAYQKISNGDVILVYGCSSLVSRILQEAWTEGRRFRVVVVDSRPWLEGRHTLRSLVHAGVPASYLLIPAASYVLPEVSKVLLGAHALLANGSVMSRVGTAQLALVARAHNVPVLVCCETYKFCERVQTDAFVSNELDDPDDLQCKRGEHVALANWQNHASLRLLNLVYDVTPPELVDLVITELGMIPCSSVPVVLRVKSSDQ", "FXR2, P51116, UniProt P51116, whole entry": "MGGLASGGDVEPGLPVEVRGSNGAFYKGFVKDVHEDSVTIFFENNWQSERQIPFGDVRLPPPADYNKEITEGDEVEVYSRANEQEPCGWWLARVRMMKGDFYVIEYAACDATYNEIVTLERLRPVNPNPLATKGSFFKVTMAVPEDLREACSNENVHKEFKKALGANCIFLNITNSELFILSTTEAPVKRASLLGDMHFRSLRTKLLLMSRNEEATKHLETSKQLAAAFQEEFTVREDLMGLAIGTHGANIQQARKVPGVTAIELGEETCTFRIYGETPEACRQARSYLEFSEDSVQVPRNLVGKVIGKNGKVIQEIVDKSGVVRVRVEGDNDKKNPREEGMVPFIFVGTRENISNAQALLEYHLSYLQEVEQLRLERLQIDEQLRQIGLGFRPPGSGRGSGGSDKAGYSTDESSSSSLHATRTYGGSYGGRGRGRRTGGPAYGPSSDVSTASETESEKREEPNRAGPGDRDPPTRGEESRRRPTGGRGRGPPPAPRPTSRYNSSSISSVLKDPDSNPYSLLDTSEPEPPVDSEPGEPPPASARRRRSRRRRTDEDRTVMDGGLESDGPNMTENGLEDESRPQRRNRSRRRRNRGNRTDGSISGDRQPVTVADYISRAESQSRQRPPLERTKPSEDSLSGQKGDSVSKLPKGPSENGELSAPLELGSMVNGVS", "NDUFC2, O95298, UniProt O95298, whole entry": "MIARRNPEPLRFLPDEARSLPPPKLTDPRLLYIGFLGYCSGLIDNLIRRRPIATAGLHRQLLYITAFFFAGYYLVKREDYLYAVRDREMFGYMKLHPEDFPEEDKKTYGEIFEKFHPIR"}, "source": "the supplement of paper PMC10032668", "assay_in_all_cases": "PRISMA enrichment of interactor (LFQ) in peptide spot vs all other peptide spots (log2 fold change); higher = stronger / more specific binding of the interactor to the peptide", "key": {"ALDOA, P04075": {"biological_target": "ALDOA, P04075", "experimental": "(§1)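 PRISMA: 15-aa overlapping tiles (offset 8 aa) of 60 microproteins, plus SOS1/GLUT1 control peptides, were spot-synthesized on cellulose membranes in triplicate. Membranes were incubated with benzonase-treated HEK293T lysate, and bound proteins were identified by LC-MS/MS with LFQ. Enrichment is the log2 fold change of each protein in one spot versus all other spots. Only interactors passing the significance cutoff are listed.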"}, "ANP32A, P39687": {"biological_target": "ANP32A, P39687", "experimental": "as §1"}, "BAZ1B, Q9UIG0": {"biological_target": "BAZ1B, Q9UIG0", "experimental": "as §1"}, "C1QBP, Q07021": {"biological_target": "C1QBP, Q07021", "experimental": "as §1"}, "CAMP, P49913": {"biological_target": "CAMP, P49913", "experimental": "as §1"}, "COPS5, Q92905": {"biological_target": "COPS5, Q92905", "experimental": "as §1"}, "CTNNBL1, Q8WYA6": {"biological_target": "CTNNBL1, Q8WYA6", "experimental": "as §1"}, "FBXO45, P0C2W1": {"biological_target": "FBXO45, P0C2W1", "experimental": "as §1"}, "MSH2, P43246": {"biological_target": "MSH2, P43246", "experimental": "as §1"}, "NAP1L1, P55209": {"biological_target": "NAP1L1, P55209", "experimental": "as §1"}, "NCL, P19338": {"biological_target": "NCL, P19338", "experimental": "as §1"}, "PEF1, Q9UBV8": {"biological_target": "PEF1, Q9UBV8", "experimental": "as §1"}, "POLR1E, Q9GZS1": {"biological_target": "POLR1E, Q9GZS1", "experimental": "as §1"}, "PSMA4, P25789": {"biological_target": "PSMA4, P25789", "experimental": "as §1"}, "SET, Q01105": {"biological_target": "SET, Q01105", "experimental": "as §1"}, "SRSF2, Q01130": {"biological_target": "SRSF2, Q01130", "experimental": "as §1"}, "TFB2M, Q9H5Q4": {"biological_target": "TFB2M, Q9H5Q4", "experimental": "as §1"}, "TMEM41B, Q5BJD5": {"biological_target": "TMEM41B, Q5BJD5", "experimental": "as §1"}, "TRMT112, Q9UI30": {"biological_target": "TRMT112, Q9UI30", "experimental": "as §1"}, "TXLNA, P40222": {"biological_target": "TXLNA, P40222", "experimental": "as §1"}, "ALDOB, P05062": {"biological_target": "ALDOB, P05062", "experimental": "as §1"}, "APOA4, P06727": {"biological_target": "APOA4, P06727", "experimental": "as §1"}, "HOMER1, Q86YM7": {"biological_target": "HOMER1, Q86YM7", "experimental": "as §1"}, "NDUFS2, O75306": {"biological_target": "NDUFS2, O75306", "experimental": "as §1"}, "NMD3, Q96D46": {"biological_target": "NMD3, Q96D46", "experimental": "as §1"}, "PDCD6, O75340": {"biological_target": "PDCD6, O75340", "experimental": "as §1"}, "RPP38, P78345": {"biological_target": "RPP38, P78345", "experimental": "as §1"}, "SLC25A22, Q9H936": {"biological_target": "SLC25A22, Q9H936", "experimental": "as §1"}, "ALG6, Q9Y672": {"biological_target": "ALG6, Q9Y672", "experimental": "as §1"}, "BSDC1, Q9NW68": {"biological_target": "BSDC1, Q9NW68", "experimental": "as §1"}, "CASP14, P31944": {"biological_target": "CASP14, P31944", "experimental": "as §1"}, "CLSPN, Q9HAW4": {"biological_target": "CLSPN, Q9HAW4", "experimental": "as §1"}, "EIF2B4, Q9UI10": {"biological_target": "EIF2B4, Q9UI10", "experimental": "as §1"}, "FXR2, P51116": {"biological_target": "FXR2, P51116", "experimental": "as §1"}, "GEMIN5, Q8TEQ6": {"biological_target": "GEMIN5, Q8TEQ6", "experimental": "as §1"}, "MRPL34, Q9BQ48": {"biological_target": "MRPL34, Q9BQ48", "experimental": "as §1"}, "NDUFC2, O95298": {"biological_target": "NDUFC2, O95298", "experimental": "as §1"}, "NSDHL, Q15738": {"biological_target": "NSDHL, Q15738", "experimental": "as §1"}, "NUP98, P52948": {"biological_target": "NUP98, P52948", "experimental": "as §1"}, "RSRC2, Q7L4I2": {"biological_target": "RSRC2, Q7L4I2", "experimental": "as §1"}, "TBCD, Q9BTW9": {"biological_target": "TBCD, Q9BTW9", "experimental": "as §1"}, "TRIR, Q9BQ61": {"biological_target": "TRIR, Q9BQ61", "experimental": "as §1"}, "UFL1, O94874": {"biological_target": "UFL1, O94874", "experimental": "as §1"}, "ZC3HAV1, Q7Z2W4": {"biological_target": "ZC3HAV1, Q7Z2W4", "experimental": "as §1"}}, "note": "The other results are listed elsewhere or left out. The list holds hits alone, and they repeat only in part.", "data": [{"binder": "RSRIKTEARETRTKN", "note": "[CTC-471J1.11]", "values": [{"measurement": "PRISMA enrichment of interactor (log2)", "setting": "ALDOA, P04075", "result": 5.51}, {"measurement": "PRISMA enrichment of interactor (log2)", "setting": "ANP32A, P39687", "result": 6.74}, {"measurement": "PRISMA enrichment of interactor (log2)", "setting": "BAZ1B, Q9UIG0", "result": 5.1}, {"measurement": "PRISMA enrichment of interactor (log2)", "setting": "C1QBP, Q07021", "result": 6.71}, {"measurement": "PRISMA enrichment of interactor (log2)", "setting": "CAMP, P49913", "result": 5.32}, {"measurement": "PRISMA enrichment of interactor (log2)", "setting": "COPS5, Q92905", "result": 4.57}, {"measurement": "PRISMA enrichment of interactor (log2)", "setting": "CTNNBL1, Q8WYA6", "result": 4.64}, {"measurement": "PRISMA enrichment of interactor (log2)", "setting": "FBXO45, P0C2W1", "result": 4.36}, {"measurement": "PRISMA enrichment of interactor (log2)", "setting": "MSH2, P43246", "result": 7.23}, {"measurement": "PRISMA enrichment of interactor (log2)", "setting": "NAP1L1, P55209", "result": 5.45}, {"measurement": "PRISMA enrichment of interactor (log2)", "setting": "NCL, P19338", "result": 4.99}, {"measurement": "PRISMA enrichment of interactor (log2)", "setting": "PEF1, Q9UBV8", "result": 4.7}, {"measurement": "PRISMA enrichment of interactor (log2)", "setting": "POLR1E, Q9GZS1", "result": 4}, {"measurement": "PRISMA enrichment of interactor (log2)", "setting": "PSMA4, P25789", "result": 5.09}, {"measurement": "PRISMA enrichment of interactor (log2)", "setting": "SET, Q01105", "result": 6.08}, {"measurement": "PRISMA enrichment of interactor (log2)", "setting": "SRSF2, Q01130", "result": 6.09}, {"measurement": "PRISMA enrichment of interactor (log2)", "setting": "TFB2M, Q9H5Q4", "result": 5.58}, {"measurement": "PRISMA enrichment of interactor (log2)", "setting": "TMEM41B, Q5BJD5", "result": 4.88}, {"measurement": "PRISMA enrichment of interactor (log2)", "setting": "TRMT112, Q9UI30", "result": 6.14}, {"measurement": "PRISMA enrichment of interactor (log2)", "setting": "TXLNA, P40222", "result": 6.16}]}, {"binder": "MSRKKAQPAGLSWKP", "note": "[RP11-140K17.3_2]", "values": [{"measurement": "PRISMA enrichment of interactor (log2)", "setting": "ALDOB, P05062", "result": 4.19}, {"measurement": "PRISMA enrichment of interactor (log2)", "setting": "APOA4, P06727", "result": 5.1}, {"measurement": "PRISMA enrichment of interactor (log2)", "setting": "HOMER1, Q86YM7", "result": 7.17}, {"measurement": "PRISMA enrichment of interactor (log2)", "setting": "NDUFS2, O75306", "result": 6.38}, {"measurement": "PRISMA enrichment of interactor (log2)", "setting": "NMD3, Q96D46", "result": 9.97}, {"measurement": "PRISMA enrichment of interactor (log2)", "setting": "PDCD6, O75340", "result": 5.07}, {"measurement": "PRISMA enrichment of interactor (log2)", "setting": "RPP38, P78345", "result": 4.39}, {"measurement": "PRISMA enrichment of interactor (log2)", "setting": "SLC25A22, Q9H936", "result": 5.65}]}, {"binder": "GRKQRRPSASCTFGG", "note": "[LINC01560]", "values": [{"measurement": "PRISMA enrichment of interactor (log2)", "setting": "ALG6, Q9Y672", "result": 4.73}, {"measurement": "PRISMA enrichment of interactor (log2)", "setting": "BSDC1, Q9NW68", "result": 3.97}, {"measurement": "PRISMA enrichment of interactor (log2)", "setting": "CASP14, P31944", "result": 4.76}, {"measurement": "PRISMA enrichment of interactor (log2)", "setting": "CLSPN, Q9HAW4", "result": 4.09}, {"measurement": "PRISMA enrichment of interactor (log2)", "setting": "EIF2B4, Q9UI10", "result": 4.81}, {"measurement": "PRISMA enrichment of interactor (log2)", "setting": "FXR2, P51116", "result": 4.71}, {"measurement": "PRISMA enrichment of interactor (log2)", "setting": "GEMIN5, Q8TEQ6", "result": 4.78}, {"measurement": "PRISMA enrichment of interactor (log2)", "setting": "MRPL34, Q9BQ48", "result": 4.47}, {"measurement": "PRISMA enrichment of interactor (log2)", "setting": "NDUFC2, O95298", "result": 4.86}, {"measurement": "PRISMA enrichment of interactor (log2)", "setting": "NSDHL, Q15738", "result": 4.05}, {"measurement": "PRISMA enrichment of interactor (log2)", "setting": "NUP98, P52948", "result": 4.97}, {"measurement": "PRISMA enrichment of interactor (log2)", "setting": "RSRC2, Q7L4I2", "result": 4.41}, {"measurement": "PRISMA enrichment of interactor (log2)", "setting": "TBCD, Q9BTW9", "result": 7.47}, {"measurement": "PRISMA enrichment of interactor (log2)", "setting": "TRIR, Q9BQ61", "result": 4.26}, {"measurement": "PRISMA enrichment of interactor (log2)", "setting": "UFL1, O94874", "result": 4.34}, {"measurement": "PRISMA enrichment of interactor (log2)", "setting": "ZC3HAV1, Q7Z2W4", "result": 5.18}]}]}
